# Assay results

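Selective DUX4 reporter inhibition in doxycycline-induced 293T-iDUX4 cells, scored as Gaussia percent activity minus Italica percent activity, after a 24-hour treatment.
The test concentration is not given here.
Percent difference between the Gaussia and Italica channels; more negative values mean more selective suppression of the DUX4 reporter, and higher values mean less activity.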

Values are in %.
How 0% and 100% were set is not given here.
Common to all entries: measured here: selective DUX4 reporter inhibition.
Part of the compounds only, not a random draw; the main read-out is not listed here.

CO[C@@H]1CN(C)C(=O)c2cc(NS(=O)(=O)c3cccc(F)c3)ccc2OC[C@@H](C)N(Cc2cc(F)ccc2F)C[C@@H]1C read Gaussia minus Italica difference -13.36%. With O=C(c1ccccc1)N1CC[C@@H]2[C@H]1c1cc(C#CC3CCCCC3)ccc1N[C@@H]2CO the assay gave Gaussia minus Italica difference -10.21%. Cc1ccc(S(=O)(=O)Nc2ccc3c(c2)C(=O)N([C@H](C)CO)C[C@H](C)[C@H](CN(C)Cc2ccc4c(c2)OCO4)OCCCC[C@@H](C)O3)cc1 read Gaussia minus Italica difference 4.25%. O=C(Nc1ccc(F)cc1)N1C[C@H]2[C@@H](c3ccccc31)[C@H](CO)N2C(=O)Cc1ccccc1 read Gaussia minus Italica difference -7.182%. With Cc1ccc(S(=O)(=O)N2C[C@H](O)COC[C@H]3O[C@H](CC(=O)NCc4ccc(Cl)c(Cl)c4)CC[C@@H]32)cc1 the assay gave Gaussia minus Italica difference -1.416%. With O=C(C[C@@H]1CC[C@H]2[C@@H](COC[C@@H](O)CN2Cc2cc(F)ccc2F)O1)NCc1ccc(Oc2ccccc2)cc1 the assay gave Gaussia minus Italica difference -12.04%. C[C@@H]1CN([C@@H](C)CO)C(=O)c2c(c3ccccc3n2C)-c2ccccc2CO[C@H]1CN(C)Cc1ccc2c(c1)OCCN2C read Gaussia minus Italica difference -10.54%.

With COc1cccc(C#Cc2ccc([C@H]3[C@H]4CN(S(=O)(=O)c5ccccc5C)CC(=O)N4[C@H]3CO)cc2)c1 the assay gave Gaussia minus Italica difference 8.771%. Result for CN1C(=O)c2cc(NC(=O)c3cccc(F)c3)ccc2OC[C@H]2O[C@H](CC(=O)NCC3CCCCC3)CC[C@H]21 was Gaussia minus Italica difference -2.194%. O=C(c1cccc(F)c1)N1CC[C@@H]2[C@@H](CO)Nc3ccc(-c4ccccc4F)cc3[C@@H]21 gave Gaussia minus Italica difference 5.31%. CO[C@@H]1CN(C)C(=O)c2cc(NC(=O)C3CC3)ccc2OC[C@@H](C)N(Cc2cc(F)ccc2F)C[C@H]1C gave Gaussia minus Italica difference -14.43%. COc1ccc(C#Cc2ccc([C@@H]3[C@@H](CO)N4CCCCN(C)C[C@@H]34)cc2)cc1 read Gaussia minus Italica difference 14.33%. With C[C@H]1CN([C@@H](C)CO)C(=O)c2ccccc2-c2ccccc2CO[C@H]1CN(C)S(=O)(=O)c1cccc(F)c1 the assay gave Gaussia minus Italica difference -2.534%. O=C(Nc1ccccc1F)N1CCCCN2[C@H](C1)[C@@H](c1ccc(C#Cc3cccnc3)cc1)[C@@H]2CO gave Gaussia minus Italica difference -18.36%.

With COc1ccccc1C#Cc1ccc2c(c1)[C@H]1[C@H](CCN1S(=O)(=O)c1ccc(C)cc1)[C@H](CO)N2 the assay gave Gaussia minus Italica difference 7.372%. O=C(Cc1cccnc1)N1CCCCN2[C@H](CO)[C@H](c3ccc(C#CC4CCCC4)cc3)[C@@H]2C1 gave Gaussia minus Italica difference -7.237%. COc1cccc(C#Cc2ccc([C@H]3[C@@H](CO)N4C(=O)CN(C(=O)Cc5ccccc5)C[C@@H]34)cc2)c1 gave Gaussia minus Italica difference -2.732%. With C[C@H](NC(=O)C[C@@H]1CC[C@H](NC(=O)Cc2ccccn2)[C@H](CO)O1)c1ccccc1 the assay gave Gaussia minus Italica difference 0.589%. Result for O=C(c1cnccn1)N1CC(=O)N2[C@@H](CO)[C@@H](c3ccc(C#CCc4ccccc4)cc3)[C@@H]2C1 was Gaussia minus Italica difference -10.34%. Result for N#Cc1cccc(-c2ccc(C3[C@@H]4CN(C(=O)C5CCCCC5)C[C@H]3N4)cc2)c1 (some centres unmarked) was Gaussia minus Italica difference -17.16%. For COc1ccc(S(=O)(=O)N(C)C[C@H]2OCc3ccccc3-c3c(n(C)c4ccccc34)C(=O)N([C@@H](C)CO)C[C@@H]2C)cc1 the result was Gaussia minus Italica difference -12.9%.

Cc1ccccc1S(=O)(=O)N(C)C[C@@H]1OCc2ccccc2-c2c(n(C)c3ccccc23)C(=O)N([C@@H](C)CO)C[C@@H]1C read Gaussia minus Italica difference -7.515%. O=C(C[C@H]1CC[C@H]2[C@@H](COC[C@@H](O)CN2Cc2cccc(C(F)(F)F)c2)O1)NCc1ccc(F)cc1 read Gaussia minus Italica difference -9.029%. Result for COc1ccc(C#Cc2ccc([C@H]3[C@@H](CO)N4C(=O)CN(C(=O)c5ccc(F)cc5)C[C@H]34)cc2)cc1 was Gaussia minus Italica difference -10.56%. O=C(O)[C@@H]1[C@@H](CO)[C@@H]2Cn3c(ccc(/C=C/c4ccccc4)c3=O)[C@@H]2N1Cc1ccc2c(c1)OCO2 read Gaussia minus Italica difference -5.992%. Result for CCS(=O)(=O)N1CCC2(CC1)CN(S(=O)(=O)c1ccc(C)cc1)[C@@H](CO)c1[nH]c3cc(OC)ccc3c12 was Gaussia minus Italica difference -8.817%. For COc1ccc(C#Cc2ccc([C@H]3[C@@H](CO)N4CCCCN(C(=O)Nc5cccc(F)c5)C[C@H]34)cc2)cc1 the result was Gaussia minus Italica difference 5.95%. Cc1ccccc1-c1ccc([C@H]2[C@@H](CO)N3CCCCN(S(=O)(=O)c4ccc(F)cc4)C[C@H]23)cc1 read Gaussia minus Italica difference -23.69%.

With COc1ccc2c3c([nH]c2c1)[C@@H](CO)N(Cc1ccc(Cl)cc1)CC31CN(Cc2ccccc2)C1 the assay gave Gaussia minus Italica difference -12.5%. O=C(C[C@H]1CC[C@@H]2[C@H](COC[C@@H](O)CN2Cc2cc(F)ccc2F)O1)NCc1ccc(Oc2ccccc2)cc1 read Gaussia minus Italica difference -9.935%. Result for CC(C)CC#Cc1ccc([C@@H]2[C@@H](CO)N3C(=O)CN(C(=O)c4ccc5c(c4)OCO5)C[C@@H]23)cc1 was Gaussia minus Italica difference -9.243%. Result for N#Cc1cccc(-c2ccc(C3[C@@H]4CN(Cc5ccccc5F)C[C@H]3N4)cc2)c1 (some centres unmarked) was Gaussia minus Italica difference -21.47%.

4 of the entries, repeated:

structure,Gaussia minus Italica difference (%)
CO[C@@H]1CN(C)C(=O)c2cc(NC(=O)C3CC3)ccc2OC[C@@H](C)N(Cc2cc(F)ccc2F)C[C@H]1C,-14.43
Cc1ccc(S(=O)(=O)Nc2ccc3c(c2)C(=O)N([C@H](C)CO)C[C@H](C)[C@H](CN(C)Cc2ccc4c(c2)OCO4)OCCCC[C@@H](C)O3)cc1,4.25
O=C(C[C@H]1CC[C@H]2[C@@H](COC[C@@H](O)CN2Cc2cccc(C(F)(F)F)c2)O1)NCc1ccc(F)cc1,-9.029
O=C(O)[C@@H]1[C@@H](CO)[C@@H]2Cn3c(ccc(/C=C/c4ccccc4)c3=O)[C@@H]2N1Cc1ccc2c(c1)OCO2,-5.992

Data taken from PubChem BioAssay AID1224904, deposited by Broad Institute (2016).